At least one compound was matched to its structure with a doubt left.
Columns and labels:
Assay type in all cases: cell-based, human
[1] = test system: BeWo cells; experiment: Forskolin-induced trophoblast syncytialization in the microfluidic device (immunofluorescence); conditions: 50 uM forskolin, 72 hours
Experimental: (§1) Following the formation of a confluent epithelial monolayer on the membrane surface in the upper microchannel, the apical side of the epithelium can be treated with forskolin to activate the protein kinase A pathway in the cultured trophoblasts. A stock solution of forskolin (Sigmal 5 mg/mL in DMSO) can be diluted with F-12K medium to a final concentration of 50 uM and perfused through the upper microchannel. After 72 hours of forskolin treatment, the trophoblast cells can be fixed in 4% PFA, permeabilized in Triton-X 100, and then incubated with 2% BSA in PBS for immunofluorescence staining. To analyze changes in junctional protein expression, the samples can be incubated with anti-E-cadherin antibody (Life Technologies) in 2% BSA, followed by secondary antibody and DAPI. Additionally, media perfusate can be collected at 48, 72, and 96 hours from both untreated and forskolin-treated devices. The collected samples can be analyzed using a human chorionic gonadotropin beta (β-hCG) ELISA kit (Abcam) to quantify the levels of β-hCG produced by the trophoblast population at each time point.
Accordingly, when the BeWo cells in the maternal compartment are exposed to forskolin, they can begin to undergo cell-cell fusion as illustrated by nuclear aggregation that can be evident at 72 hours of forskolin treatment (FIG. 9B). […]

[2] = test system: trophoblast cells; experiment: β-hCG ELISA of maternal compartment perfusate; conditions: 50 uM forskolin; perfusate collected at 48, 72 and 96 hours
Experimental: as §1, with “([…]” for “(Sigmal”, “point. […] Accordingly, the production of the […] of hCG in the maternal compartment can be measured to quantitatively examine syncytialization. […]” for “point.”

[3] = test system: microengineered placental barrier; experiment: FITC-dextran transport across the syncytialized barrier (paracellular permeability); conditions: 3 kDa FITC-dextran 0.1 mg/mL, maternal to fetal, 3 hours perfusion, during forskolin exposure

C=C[C@@]1(C)CC(=O)[C@]2(O)[C@@]3(C)[C@@H](O)CCC(C)(C)[C@@H]3[C@H](O)[C@H](OC(C)=O)[C@@]2(C)O1 [forskolin]
E-cadherin expression (epithelial cell-cell junctions) [1]: downregulation of E-cadherin throughout the epithelial layer
hCG hormone levels over time [2]: continue to increase over the course of 96 hours
amount of dextran transport across the barrier [3]: decrease over the course of forskolin exposure
